Our source for the log2 fold change values is the supplement of paper PMC10849652.

By UniProt entry, the sequences of proteins in these tests, tags left out. Where a name states a change or a piece, a line headed by the entry shows the natural chain unless it says otherwise.
UniProt P62324: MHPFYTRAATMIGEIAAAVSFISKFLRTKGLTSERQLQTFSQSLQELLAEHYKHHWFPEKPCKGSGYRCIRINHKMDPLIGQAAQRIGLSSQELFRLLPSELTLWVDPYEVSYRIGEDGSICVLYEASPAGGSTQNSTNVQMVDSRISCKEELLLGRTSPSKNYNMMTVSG
UniProt Q9BSF8: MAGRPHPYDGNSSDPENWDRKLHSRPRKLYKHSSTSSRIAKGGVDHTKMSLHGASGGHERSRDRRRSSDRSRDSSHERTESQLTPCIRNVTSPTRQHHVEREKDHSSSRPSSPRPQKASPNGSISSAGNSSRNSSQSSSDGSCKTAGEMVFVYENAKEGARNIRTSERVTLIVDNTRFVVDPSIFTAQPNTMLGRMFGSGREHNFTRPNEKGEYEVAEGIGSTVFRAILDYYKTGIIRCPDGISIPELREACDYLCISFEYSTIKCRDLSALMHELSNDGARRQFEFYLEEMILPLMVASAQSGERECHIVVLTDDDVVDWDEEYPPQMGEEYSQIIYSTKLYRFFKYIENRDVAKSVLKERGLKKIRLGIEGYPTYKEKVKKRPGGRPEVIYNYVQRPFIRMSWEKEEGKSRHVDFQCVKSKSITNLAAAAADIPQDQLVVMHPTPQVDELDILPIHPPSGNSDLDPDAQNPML
UniProt Q9NWD9: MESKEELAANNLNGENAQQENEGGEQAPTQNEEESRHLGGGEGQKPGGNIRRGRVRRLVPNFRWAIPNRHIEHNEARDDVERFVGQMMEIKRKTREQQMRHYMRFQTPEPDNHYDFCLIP
UniProt O43505: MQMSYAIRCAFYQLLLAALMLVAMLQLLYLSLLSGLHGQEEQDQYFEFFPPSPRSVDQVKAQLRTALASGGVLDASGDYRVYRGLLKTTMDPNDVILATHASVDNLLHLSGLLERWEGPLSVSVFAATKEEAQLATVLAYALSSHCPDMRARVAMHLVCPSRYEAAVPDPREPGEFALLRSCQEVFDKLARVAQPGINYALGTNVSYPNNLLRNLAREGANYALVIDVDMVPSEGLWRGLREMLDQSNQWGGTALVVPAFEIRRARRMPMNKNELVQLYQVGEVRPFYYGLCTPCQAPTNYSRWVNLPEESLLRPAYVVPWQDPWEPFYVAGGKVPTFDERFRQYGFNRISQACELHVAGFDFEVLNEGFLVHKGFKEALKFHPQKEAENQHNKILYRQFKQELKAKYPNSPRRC
UniProt Q8WY36: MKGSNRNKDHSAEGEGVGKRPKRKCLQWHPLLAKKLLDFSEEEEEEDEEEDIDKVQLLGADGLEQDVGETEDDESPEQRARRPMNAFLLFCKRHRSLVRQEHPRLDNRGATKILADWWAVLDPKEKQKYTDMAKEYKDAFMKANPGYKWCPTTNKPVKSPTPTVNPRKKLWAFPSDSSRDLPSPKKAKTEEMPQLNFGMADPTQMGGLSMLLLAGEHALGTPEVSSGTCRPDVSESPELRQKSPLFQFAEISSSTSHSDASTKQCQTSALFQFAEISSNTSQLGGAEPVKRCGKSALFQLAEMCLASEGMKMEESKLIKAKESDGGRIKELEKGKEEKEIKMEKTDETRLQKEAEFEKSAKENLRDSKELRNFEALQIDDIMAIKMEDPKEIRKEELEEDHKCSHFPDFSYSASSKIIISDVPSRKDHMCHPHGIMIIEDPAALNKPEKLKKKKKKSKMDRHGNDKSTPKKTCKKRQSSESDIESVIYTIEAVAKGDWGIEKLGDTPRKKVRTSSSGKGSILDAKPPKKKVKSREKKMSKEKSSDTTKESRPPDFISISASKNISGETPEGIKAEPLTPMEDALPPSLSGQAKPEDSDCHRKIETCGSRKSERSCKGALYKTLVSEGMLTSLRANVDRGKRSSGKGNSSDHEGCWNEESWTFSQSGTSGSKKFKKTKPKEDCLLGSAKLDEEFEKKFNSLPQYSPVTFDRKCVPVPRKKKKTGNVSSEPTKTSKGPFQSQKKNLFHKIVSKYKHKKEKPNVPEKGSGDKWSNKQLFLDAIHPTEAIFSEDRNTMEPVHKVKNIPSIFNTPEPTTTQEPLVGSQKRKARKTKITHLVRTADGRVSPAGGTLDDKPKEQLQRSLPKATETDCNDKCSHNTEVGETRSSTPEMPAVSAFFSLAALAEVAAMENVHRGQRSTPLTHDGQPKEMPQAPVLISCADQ
UniProt Q5H9F3: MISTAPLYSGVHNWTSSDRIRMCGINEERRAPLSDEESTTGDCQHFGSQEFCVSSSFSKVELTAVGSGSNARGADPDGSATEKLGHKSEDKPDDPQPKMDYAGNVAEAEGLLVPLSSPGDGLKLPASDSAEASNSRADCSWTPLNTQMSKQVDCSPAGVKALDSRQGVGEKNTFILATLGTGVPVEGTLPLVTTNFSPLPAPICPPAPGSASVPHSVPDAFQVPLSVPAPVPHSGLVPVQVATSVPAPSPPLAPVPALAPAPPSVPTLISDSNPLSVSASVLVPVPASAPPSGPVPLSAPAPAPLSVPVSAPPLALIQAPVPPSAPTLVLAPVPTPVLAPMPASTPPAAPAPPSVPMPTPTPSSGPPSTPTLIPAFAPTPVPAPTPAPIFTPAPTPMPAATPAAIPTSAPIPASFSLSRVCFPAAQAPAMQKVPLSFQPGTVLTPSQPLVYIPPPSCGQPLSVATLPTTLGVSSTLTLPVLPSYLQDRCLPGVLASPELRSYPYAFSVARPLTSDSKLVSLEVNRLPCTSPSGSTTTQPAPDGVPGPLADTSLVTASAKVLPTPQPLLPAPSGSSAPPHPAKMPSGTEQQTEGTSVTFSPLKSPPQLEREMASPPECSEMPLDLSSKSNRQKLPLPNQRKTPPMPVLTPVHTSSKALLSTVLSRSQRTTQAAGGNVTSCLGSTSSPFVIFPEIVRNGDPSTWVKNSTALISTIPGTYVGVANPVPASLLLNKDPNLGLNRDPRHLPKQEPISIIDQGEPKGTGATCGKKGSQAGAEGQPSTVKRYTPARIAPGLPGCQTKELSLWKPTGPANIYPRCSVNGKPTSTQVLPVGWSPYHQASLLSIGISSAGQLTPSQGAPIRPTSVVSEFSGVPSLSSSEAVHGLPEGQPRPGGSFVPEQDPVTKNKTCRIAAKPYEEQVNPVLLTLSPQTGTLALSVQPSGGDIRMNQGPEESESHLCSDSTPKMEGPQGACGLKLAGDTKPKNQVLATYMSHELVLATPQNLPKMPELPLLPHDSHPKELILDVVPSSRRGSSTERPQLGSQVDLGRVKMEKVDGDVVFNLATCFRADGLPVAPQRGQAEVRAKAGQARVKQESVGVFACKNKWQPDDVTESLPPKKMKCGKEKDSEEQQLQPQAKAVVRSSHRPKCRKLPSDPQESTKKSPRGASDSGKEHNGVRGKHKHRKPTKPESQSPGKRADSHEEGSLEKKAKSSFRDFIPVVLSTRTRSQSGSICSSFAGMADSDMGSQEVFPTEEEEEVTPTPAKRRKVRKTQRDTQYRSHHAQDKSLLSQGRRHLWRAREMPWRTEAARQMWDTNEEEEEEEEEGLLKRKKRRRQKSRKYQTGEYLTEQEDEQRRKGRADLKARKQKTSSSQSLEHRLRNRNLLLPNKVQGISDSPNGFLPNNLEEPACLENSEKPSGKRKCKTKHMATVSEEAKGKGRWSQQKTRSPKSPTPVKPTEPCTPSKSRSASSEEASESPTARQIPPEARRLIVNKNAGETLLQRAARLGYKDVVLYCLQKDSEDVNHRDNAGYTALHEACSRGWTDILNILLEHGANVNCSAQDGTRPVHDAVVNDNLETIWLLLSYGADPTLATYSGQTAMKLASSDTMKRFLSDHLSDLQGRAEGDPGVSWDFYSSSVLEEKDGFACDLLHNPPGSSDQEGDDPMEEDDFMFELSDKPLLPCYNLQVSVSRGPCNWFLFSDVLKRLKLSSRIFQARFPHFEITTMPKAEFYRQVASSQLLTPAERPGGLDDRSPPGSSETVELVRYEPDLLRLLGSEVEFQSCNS
UniProt Q9H0C5: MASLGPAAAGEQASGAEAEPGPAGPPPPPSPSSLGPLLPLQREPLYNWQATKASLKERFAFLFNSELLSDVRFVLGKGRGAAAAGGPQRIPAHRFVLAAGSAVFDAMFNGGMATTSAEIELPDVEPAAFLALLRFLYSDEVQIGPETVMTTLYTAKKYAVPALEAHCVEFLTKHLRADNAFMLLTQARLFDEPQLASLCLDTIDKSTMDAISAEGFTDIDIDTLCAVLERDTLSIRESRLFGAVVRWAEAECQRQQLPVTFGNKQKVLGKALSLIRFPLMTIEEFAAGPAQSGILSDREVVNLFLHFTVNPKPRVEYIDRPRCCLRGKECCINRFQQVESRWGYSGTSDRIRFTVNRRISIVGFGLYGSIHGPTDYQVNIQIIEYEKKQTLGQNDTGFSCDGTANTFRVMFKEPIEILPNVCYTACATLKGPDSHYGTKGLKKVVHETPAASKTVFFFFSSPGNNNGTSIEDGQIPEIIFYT
UniProt Q96DR5: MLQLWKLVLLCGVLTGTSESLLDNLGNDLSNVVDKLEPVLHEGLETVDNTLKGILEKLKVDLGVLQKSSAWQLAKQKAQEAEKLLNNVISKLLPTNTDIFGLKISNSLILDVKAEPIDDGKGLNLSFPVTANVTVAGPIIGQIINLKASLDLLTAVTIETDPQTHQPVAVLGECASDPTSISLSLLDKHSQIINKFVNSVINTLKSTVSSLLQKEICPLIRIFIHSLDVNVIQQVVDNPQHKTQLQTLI
UniProt P10415, whole entry, looked up: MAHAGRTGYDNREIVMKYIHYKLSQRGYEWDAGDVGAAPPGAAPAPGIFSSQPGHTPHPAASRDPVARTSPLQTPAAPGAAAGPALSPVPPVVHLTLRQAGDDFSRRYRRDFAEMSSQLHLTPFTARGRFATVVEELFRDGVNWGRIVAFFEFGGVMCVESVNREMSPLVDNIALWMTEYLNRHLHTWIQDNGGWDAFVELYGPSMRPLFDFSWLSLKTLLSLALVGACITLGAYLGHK
UniProt Q9NP55: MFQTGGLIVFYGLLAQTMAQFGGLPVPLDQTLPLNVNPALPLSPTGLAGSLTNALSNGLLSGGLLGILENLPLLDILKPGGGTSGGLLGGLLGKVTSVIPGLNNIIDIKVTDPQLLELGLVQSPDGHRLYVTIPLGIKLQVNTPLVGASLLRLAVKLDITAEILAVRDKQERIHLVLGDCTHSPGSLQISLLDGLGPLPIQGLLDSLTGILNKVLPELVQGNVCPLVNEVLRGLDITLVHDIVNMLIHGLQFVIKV
UniProt Q96RK4: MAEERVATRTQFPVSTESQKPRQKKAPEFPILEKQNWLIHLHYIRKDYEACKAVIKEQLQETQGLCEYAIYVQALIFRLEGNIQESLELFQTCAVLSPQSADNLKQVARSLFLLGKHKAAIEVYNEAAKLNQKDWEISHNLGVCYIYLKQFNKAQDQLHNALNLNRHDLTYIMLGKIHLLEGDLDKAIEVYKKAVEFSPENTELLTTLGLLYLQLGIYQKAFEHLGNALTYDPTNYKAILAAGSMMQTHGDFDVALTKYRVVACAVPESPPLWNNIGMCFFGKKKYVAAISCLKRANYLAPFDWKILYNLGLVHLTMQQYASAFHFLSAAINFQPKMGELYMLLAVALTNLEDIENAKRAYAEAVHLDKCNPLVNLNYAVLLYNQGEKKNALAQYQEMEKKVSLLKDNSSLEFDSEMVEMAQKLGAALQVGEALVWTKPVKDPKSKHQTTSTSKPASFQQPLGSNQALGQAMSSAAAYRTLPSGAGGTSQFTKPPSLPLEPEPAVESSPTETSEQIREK
UniProt Q8TDL5: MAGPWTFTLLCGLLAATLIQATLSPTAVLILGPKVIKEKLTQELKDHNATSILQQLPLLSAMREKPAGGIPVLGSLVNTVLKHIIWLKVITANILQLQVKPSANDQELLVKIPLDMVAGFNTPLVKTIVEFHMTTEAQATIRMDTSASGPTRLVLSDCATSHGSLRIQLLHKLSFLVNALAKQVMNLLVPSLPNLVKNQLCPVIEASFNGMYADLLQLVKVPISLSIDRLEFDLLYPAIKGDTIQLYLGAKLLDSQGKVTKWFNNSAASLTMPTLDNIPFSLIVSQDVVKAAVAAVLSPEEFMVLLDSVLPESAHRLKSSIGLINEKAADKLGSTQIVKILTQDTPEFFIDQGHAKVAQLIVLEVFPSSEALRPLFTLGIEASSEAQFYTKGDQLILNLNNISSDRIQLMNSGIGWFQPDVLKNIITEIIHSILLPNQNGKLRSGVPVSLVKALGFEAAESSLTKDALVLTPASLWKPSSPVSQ
UniProt Q1RMZ1: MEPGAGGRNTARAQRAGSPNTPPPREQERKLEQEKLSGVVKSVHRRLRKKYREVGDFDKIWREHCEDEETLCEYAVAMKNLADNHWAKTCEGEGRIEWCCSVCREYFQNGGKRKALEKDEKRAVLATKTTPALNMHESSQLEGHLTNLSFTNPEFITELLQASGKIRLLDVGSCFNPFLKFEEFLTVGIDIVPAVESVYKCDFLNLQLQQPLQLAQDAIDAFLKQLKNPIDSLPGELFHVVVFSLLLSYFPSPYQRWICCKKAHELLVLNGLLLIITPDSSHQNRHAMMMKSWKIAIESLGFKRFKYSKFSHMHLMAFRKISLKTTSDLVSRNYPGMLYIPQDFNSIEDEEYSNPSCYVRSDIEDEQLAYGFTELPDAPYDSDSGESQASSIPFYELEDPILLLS

This is one part of the list.

Compound in the first test: Cc1ccc(-n2nc(C(C)(C)C)cc2NC(=O)Nc2ccc(OCCN3CCOCC3)c3ccccc23)cc1 [doramapimod]
Briefly: log2 fold change, soluble protein after heating vs DMSO (PISA); higher = thermal stabilisation; K562 lysate, 10 uM; active = over 0.2 and 3.5 SD of the protein, either way, in both replicates (recomputed). The method in brief:
(§1)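 To prepare the extract, K562 pellets were dounce-homogenised in PBS pH 7.4 with 1 mM MgCl2, giving crude material at 1 mg/mL protein. This was treated with 10 μM compound for 30 min, then heated in aliquots for 3 min over 48°C-58°C before pooling and addition of NP-40 to 0.5% at 4°C. Centrifugation at 21,000xg for 90 min left soluble protein in the supernatant, which TMTpro 16plex LC-MS/MS quantified with equalised channel sums. Results are log-two fold changes in thermal stability compared with solvent controls, from duplicates.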
As for BAIAP2 isoform 6 (UniProt Q9UQB8), the log2 fold change was inactive: 0.192.

As to B4GALNT4 (UniProt Q76KP1), the log2 fold change was inactive: -0.031.

As to BTBD2 (UniProt Q9BX70), the log2 fold change was inactive: -0.051.

With BEGAIN, A0A1B0GVM0, the log2 fold change is inactive: -0.056.

In the case of BHLHE40 (UniProt O14503), the log2 fold change is inactive: 0.024.

With BTG1 (UniProt P62324), the log2 fold change is inactive: -0.011.

For the target BTBD10 isoform 2 (UniProt Q9BSF8), the log2 fold change is inactive: 0.02.

On to BEX4 (UniProt Q9NWD9), for which the log2 fold change was inactive: 0.092.

In the case of B4GAT1 (UniProt O43505), the log2 fold change is inactive: 0.009.

Consider BBS7 (UniProt Q8IWZ6), for which the log2 fold change is inactive: 0.151.

As to B4GALT7 (UniProt Q9UBV7), the log2 fold change is inactive: -0.102.

With BNIP3L (UniProt O60238), the log2 fold change was inactive: 0.109.

On to BRWD1 (UniProt Q9NSI6), for which the log2 fold change was inactive: 0.07.

Regarding BBX (UniProt Q8WY36), the log2 fold change is inactive: -0.07.

Consider BCORL1 isoform 3 (UniProt Q5H9F3), for which the log2 fold change was inactive: 0.117.

For the target BDP1 (UniProt A6H8Y1), the log2 fold change is inactive: 0.013.

Compound in another test: Cc1ccc(NC(=O)c2ccc(CN3CC[C@H](N(C)C)C3)c(C(F)(F)F)c2)cc1Nc1nccc(-c2cncnc2)n1 [bafetinib]
The description is as above. The method in brief: as §1
In the case of BPNT1 (UniProt A6NF51), the log2 fold change is inactive: -0.094.

For BTBD1 (UniProt Q9H0C5), the log2 fold change was inactive: 0.006.

Regarding BTBD10 isoform 2 (UniProt Q9BSF8), the log2 fold change is inactive: -0.021.

Regarding BPIFA2 (UniProt Q96DR5), the log2 fold change was inactive: 0.025.

Take BCL2 (UniProt P10415): the log2 fold change is inactive: 0.004.

Turning to B4GAT1 (UniProt O43505), the log2 fold change is inactive: -0.09.

Compound in the next test: Cc1cccc(CC(=O)N2CCc3c2ccc(-c2cn(C)c4ncnc(N)c24)c3F)n1
The description is as above. In a few lines: as §1
Turning to BAIAP2 isoform 6 (UniProt Q9UQB8), the log2 fold change is inactive: 0.002.

Regarding BTBD2 (UniProt Q9BX70), the log2 fold change was inactive: 0.286.

As for BPIFA1 (UniProt Q9NP55), the log2 fold change is inactive: 1.2.

BTBD1 (UniProt Q9H0C5): the log2 fold change was inactive: -0.029.

Regarding BRD9 (UniProt Q9H8M2), the log2 fold change is inactive: -0.032.

Take BBS4 isoform 2 (UniProt Q96RK4): the log2 fold change is inactive: 0.245.

For BPIFB1 (UniProt Q8TDL5), the log2 fold change was inactive: 0.795.

Consider BPIFA2 (UniProt Q96DR5), for which the log2 fold change is inactive: 1.17.

As to BCAP31, A0A2R8Y5M6, the log2 fold change was inactive: -0.13.

For BMT2 (UniProt Q1RMZ1), the log2 fold change was inactive: -0.056.

Regarding BBS7 (UniProt Q8IWZ6), the log2 fold change was inactive: -0.119.

For B4GALT7 (UniProt Q9UBV7), the log2 fold change is inactive: -0.119.

For the target B4GALT4 (UniProt O60513), the log2 fold change is inactive: 0.12.

For the target BCORL1 isoform 3 (UniProt Q5H9F3), the log2 fold change was inactive: 0.475.

Compound in the next test: Cc1cn(-c2cc(NC(=O)c3ccc(C)c(Nc4nccc(-c5cccnc5)n4)c3)cc(C(F)(F)F)c2)cn1 [nilotinib]
Described as above. In a few lines:
as §1
As for BEGAIN, A0A1B0GVM0, the log2 fold change was inactive: 0.02.

As to BPIFA1 (UniProt Q9NP55), the log2 fold change is inactive: 0.01.

Turning to BTBD1 (UniProt Q9H0C5), the log2 fold change is inactive: 0.085.

BRD9 (UniProt Q9H8M2): the log2 fold change was inactive: 0.201.

Regarding BBS4 isoform 2 (UniProt Q96RK4), the log2 fold change was inactive: -0.086.

Turning to BTBD10 isoform 2 (UniProt Q9BSF8), the log2 fold change is inactive: -0.093.

As to BPIFB1 (UniProt Q8TDL5), the log2 fold change is inactive: -0.015.

BEX4 (UniProt Q9NWD9): the log2 fold change was inactive: 0.043.

Take BPIFA2 (UniProt Q96DR5): the log2 fold change was inactive: -0.075.

Consider BMT2 (UniProt Q1RMZ1), for which the log2 fold change is inactive: 0.172.

In the case of B4GAT1 (UniProt O43505), the log2 fold change is inactive: 0.004.

For the target BBS7 (UniProt Q8IWZ6), the log2 fold change was inactive: -0.039.

As to BBX (UniProt Q8WY36), the log2 fold change is inactive: -0.141.

Compound in a further test: Cc1nc(Nc2n[nH]c3c2CN(C(=O)N[C@H](CN(C)C)c2ccccc2)C3(C)C)c2sccc2n1
The description is as above. The method in brief:
as §1
Consider BEGAIN, A0A1B0GVM0, for which the log2 fold change was inactive: 0.055.

For the target BPIFA1 (UniProt Q9NP55), the log2 fold change is inactive: -0.06.

For the target BTBD1 (UniProt Q9H0C5), the log2 fold change was inactive: -0.057.

As to BRD9 (UniProt Q9H8M2), the log2 fold change was inactive: -0.028.

Take BBS4 isoform 2 (UniProt Q96RK4): the log2 fold change is inactive: -0.026.

For the target BTBD10 isoform 2 (UniProt Q9BSF8), the log2 fold change is inactive: -0.109.

Regarding BPIFB1 (UniProt Q8TDL5), the log2 fold change was inactive: 0.005.

Take BEX4 (UniProt Q9NWD9): the log2 fold change is inactive: -0.008.

With BPIFA2 (UniProt Q96DR5), the log2 fold change was inactive: -0.707.

For BMT2 (UniProt Q1RMZ1), the log2 fold change was active: -0.923.

For the target B4GAT1 (UniProt O43505), the log2 fold change was inactive: -0.177.

On to BBS7 (UniProt Q8IWZ6), for which the log2 fold change was inactive: 0.065.

Turning to BBX (UniProt Q8WY36), the log2 fold change is inactive: 0.117.

Compound in the next test: Cc1nc(Nc2ncc(C(=O)Nc3c(C)cccc3Cl)s2)cc(N2CCN(CCO)CC2)n1 [dasatinib]
The test is described as above. The method in brief: as §1
For the target BPIFA1 (UniProt Q9NP55), the log2 fold change is inactive: -0.269.

As for BPNT1 (UniProt A6NF51), the log2 fold change is inactive: 0.129.

With BBS4 isoform 2 (UniProt Q96RK4), the log2 fold change is inactive: 0.026.

As for BTBD10 isoform 2 (UniProt Q9BSF8), the log2 fold change was inactive: -0.016.

Take BEX4 (UniProt Q9NWD9): the log2 fold change is inactive: 0.005.

For the target B4GAT1 (UniProt O43505), the log2 fold change is inactive: 0.062.

Turning to BBS7 (UniProt Q8IWZ6), the log2 fold change was inactive: -0.061.

Turning to BRWD1 (UniProt Q9NSI6), the log2 fold change is inactive: -0.195.

Consider B4GALT4 (UniProt O60513), for which the log2 fold change was inactive: -0.098.

As to BBX (UniProt Q8WY36), the log2 fold change was inactive: 0.023.

Consider BCORL1 isoform 3 (UniProt Q5H9F3), for which the log2 fold change was inactive: 0.039.
